Data source: PubChem BioAssay AID686938 (Drosophila RNAi Screening Center, 2013)
Assay: 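Looking for CRAC channel components and the factors controlling them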 (primary screen). System: Drosophila S2R+ cells. Reagent: long dsRNA against Drosophila genes, about 0.25 µg dsRNA per well, roughly 10,000 cells. Timing: 5 days of knock-down before the calcium assay. Treatment: thapsigargin (SERCA pump blocker) to empty calcium stores; entry signal taken 4 min after adding it. Read-out: 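Duplicate raw fluo-4 intensities per well from a plate reader, at rest and four minutes after thapsigargin emptied calcium stores; entry-to-rest ratio filled for only some wells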. Scale: calcium entry signal: higher = stronger calcium signal after store depletion; resting calcium signal: higher = higher resting calcium signal. Units: calcium entry signal in fluorescence units; resting calcium signal in fluorescence units. Active means: 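Called when the plate z-score of the entry-to-rest ratio, mean of duplicates, falls below −3; wells with low overall dye signal (Fmax z below −2) or more than five off-targets excluded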. Meaning of the calls: active = strongly reduced calcium entry; inactive = no strong reduction.
The screen tested about 23,000 reagents; below is a random part of those with a known target gene and a result. Of all reagents, 75 (0.33%) are marked active. 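Raw plate signals without normalisation; calls rest on plate z-scores that were not deposited; ratio present for only 364 wells.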 Names joined by + are all predicted targets of the reagent. No sequences are given here. Not stated in the record: the dose of the treatment.

{"target": "CG15024", "DRSC id": "DRSC08478", "calcium entry signal, replicate 1": 2.54e7, "calcium entry signal, replicate 2": 4.61e7, "resting calcium signal, replicate 1": 1.27e7, "resting calcium signal, replicate 2": 1.98e7, "outcome": "inactive"}
{"target": "CG33969", "DRSC id": "DRSC11777", "calcium entry signal, replicate 1": 2.84e7, "calcium entry signal, replicate 2": 4.12e7, "resting calcium signal, replicate 1": 1.32e7, "resting calcium signal, replicate 2": 1.63e7, "outcome": "inactive"}
{"target": "CR18275 + CR18166 + CG32817", "DRSC id": "DRSC17249", "calcium entry signal, replicate 1": 7.30e7, "calcium entry signal, replicate 2": 3.63e7, "resting calcium signal, replicate 1": 3.31e7, "resting calcium signal, replicate 2": 1.78e7, "outcome": "inactive"}
{"target": "if", "DRSC id": "DRSC20341", "calcium entry signal, replicate 1": 4.35e7, "calcium entry signal, replicate 2": 3.48e7, "resting calcium signal, replicate 1": 2.17e7, "resting calcium signal, replicate 2": 1.59e7, "outcome": "inactive"}
{"target": "CG34033", "DRSC id": "DRSC05190", "calcium entry signal, replicate 1": 3.36e7, "calcium entry signal, replicate 2": 7.02e7, "resting calcium signal, replicate 1": 1.72e7, "resting calcium signal, replicate 2": 3.08e7, "outcome": "inactive"}
{"target": "CG5509", "DRSC id": "DRSC15822", "calcium entry signal, replicate 1": 4.10e7, "calcium entry signal, replicate 2": 3.91e7, "resting calcium signal, replicate 1": 2.03e7, "resting calcium signal, replicate 2": 1.79e7, "outcome": "inactive"}
{"target": "mRpS6", "DRSC id": "DRSC08470", "calcium entry signal, replicate 1": 2.06e7, "calcium entry signal, replicate 2": 3.42e7, "resting calcium signal, replicate 1": 9.46e6, "resting calcium signal, replicate 2": 1.42e7, "outcome": "inactive"}
{"target": "INPP5E", "DRSC id": "DRSC09723", "calcium entry signal, replicate 1": 2.79e7, "calcium entry signal, replicate 2": 5.10e7, "resting calcium signal, replicate 1": 1.55e7, "resting calcium signal, replicate 2": 2.22e7, "outcome": "inactive"}
{"target": "P32", "DRSC id": "DRSC06988", "calcium entry signal, replicate 1": 3.27e7, "calcium entry signal, replicate 2": 2.90e7, "resting calcium signal, replicate 1": 1.54e7, "resting calcium signal, replicate 2": 1.49e7, "outcome": "inactive"}
{"target": "mthl13", "DRSC id": "DRSC05238", "calcium entry signal, replicate 1": 4.01e7, "calcium entry signal, replicate 2": 5.60e7, "resting calcium signal, replicate 1": 1.71e7, "resting calcium signal, replicate 2": 2.37e7, "outcome": "inactive"}
{"target": "CG30094", "DRSC id": "DRSC22268", "calcium entry signal, replicate 1": 2.77e7, "calcium entry signal, replicate 2": 3.24e7, "resting calcium signal, replicate 1": 1.40e7, "resting calcium signal, replicate 2": 1.64e7, "outcome": "inactive"}
{"target": "CG42675", "DRSC id": "DRSC12157", "calcium entry signal, replicate 1": 3.52e7, "calcium entry signal, replicate 2": 4.66e7, "resting calcium signal, replicate 1": 1.44e7, "resting calcium signal, replicate 2": 1.95e7, "outcome": "inactive"}
{"target": "CG42675", "DRSC id": "DRSC21868", "calcium entry signal, replicate 1": 1.79e7, "calcium entry signal, replicate 2": 2.60e7, "resting calcium signal, replicate 1": 9.85e6, "resting calcium signal, replicate 2": 1.30e7, "outcome": "inactive"}
{"target": "CR31958", "DRSC id": "DRSC00282", "calcium entry signal, replicate 1": 3.71e7, "calcium entry signal, replicate 2": 3.34e7, "resting calcium signal, replicate 1": 1.80e7, "resting calcium signal, replicate 2": 1.46e7, "outcome": "inactive"}
{"target": "CR31958", "DRSC id": "DRSC21858", "calcium entry signal, replicate 1": 2.17e7, "calcium entry signal, replicate 2": 4.13e7, "resting calcium signal, replicate 1": 1.14e7, "resting calcium signal, replicate 2": 1.87e7, "outcome": "inactive"}

2 entries already listed, ordered by “resting calcium signal, replicate 1”, lowest first:
{"target": "CG34033", "DRSC id": "DRSC05190", "calcium entry signal, replicate 1": 3.36e7, "calcium entry signal, replicate 2": 7.02e7, "resting calcium signal, replicate 1": 1.72e7, "resting calcium signal, replicate 2": 3.08e7, "outcome": "inactive"}
{"target": "CG5509", "DRSC id": "DRSC15822", "calcium entry signal, replicate 1": 4.10e7, "calcium entry signal, replicate 2": 3.91e7, "resting calcium signal, replicate 1": 2.03e7, "resting calcium signal, replicate 2": 1.79e7, "outcome": "inactive"}
